Reference: paper PMC10431718
Results are given in words; binding and its absence hold for the method and conditions named. Binding seen in cells or lysates may run through a third protein. For part of these data: Tags and fused reporters may be left off the sequences shown.

Chains of the proteins cited; added tags and fusions are not shown.
UniProt Q14974: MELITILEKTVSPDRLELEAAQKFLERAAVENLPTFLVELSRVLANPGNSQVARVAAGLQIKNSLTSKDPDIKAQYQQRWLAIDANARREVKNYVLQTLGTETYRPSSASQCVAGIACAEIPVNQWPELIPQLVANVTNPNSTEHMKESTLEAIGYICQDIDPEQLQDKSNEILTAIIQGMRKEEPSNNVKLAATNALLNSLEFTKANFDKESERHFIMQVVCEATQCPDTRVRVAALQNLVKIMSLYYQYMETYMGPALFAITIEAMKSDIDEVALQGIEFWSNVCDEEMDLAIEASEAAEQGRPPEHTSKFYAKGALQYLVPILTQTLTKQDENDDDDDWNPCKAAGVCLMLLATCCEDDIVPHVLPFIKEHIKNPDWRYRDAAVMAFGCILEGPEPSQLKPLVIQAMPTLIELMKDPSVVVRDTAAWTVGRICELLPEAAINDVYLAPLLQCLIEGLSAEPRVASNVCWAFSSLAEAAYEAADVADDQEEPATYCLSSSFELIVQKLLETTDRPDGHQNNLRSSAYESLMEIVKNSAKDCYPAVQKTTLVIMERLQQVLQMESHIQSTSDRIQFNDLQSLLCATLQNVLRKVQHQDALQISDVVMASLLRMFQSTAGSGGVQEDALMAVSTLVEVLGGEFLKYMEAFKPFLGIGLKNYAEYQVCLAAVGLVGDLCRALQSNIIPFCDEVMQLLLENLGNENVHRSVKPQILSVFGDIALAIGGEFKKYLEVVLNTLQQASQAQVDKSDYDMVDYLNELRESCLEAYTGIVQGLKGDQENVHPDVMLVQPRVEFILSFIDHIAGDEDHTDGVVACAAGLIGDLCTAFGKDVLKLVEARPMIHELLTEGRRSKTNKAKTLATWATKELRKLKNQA
UniProt Q9UPY8: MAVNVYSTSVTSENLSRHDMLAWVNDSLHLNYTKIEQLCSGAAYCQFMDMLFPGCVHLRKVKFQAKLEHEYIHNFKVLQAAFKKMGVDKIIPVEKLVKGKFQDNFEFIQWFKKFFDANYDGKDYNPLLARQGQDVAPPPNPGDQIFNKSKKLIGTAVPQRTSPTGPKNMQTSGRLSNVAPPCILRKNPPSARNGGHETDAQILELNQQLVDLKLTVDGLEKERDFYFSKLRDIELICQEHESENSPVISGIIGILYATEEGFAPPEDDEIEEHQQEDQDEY
UniProt Q07065: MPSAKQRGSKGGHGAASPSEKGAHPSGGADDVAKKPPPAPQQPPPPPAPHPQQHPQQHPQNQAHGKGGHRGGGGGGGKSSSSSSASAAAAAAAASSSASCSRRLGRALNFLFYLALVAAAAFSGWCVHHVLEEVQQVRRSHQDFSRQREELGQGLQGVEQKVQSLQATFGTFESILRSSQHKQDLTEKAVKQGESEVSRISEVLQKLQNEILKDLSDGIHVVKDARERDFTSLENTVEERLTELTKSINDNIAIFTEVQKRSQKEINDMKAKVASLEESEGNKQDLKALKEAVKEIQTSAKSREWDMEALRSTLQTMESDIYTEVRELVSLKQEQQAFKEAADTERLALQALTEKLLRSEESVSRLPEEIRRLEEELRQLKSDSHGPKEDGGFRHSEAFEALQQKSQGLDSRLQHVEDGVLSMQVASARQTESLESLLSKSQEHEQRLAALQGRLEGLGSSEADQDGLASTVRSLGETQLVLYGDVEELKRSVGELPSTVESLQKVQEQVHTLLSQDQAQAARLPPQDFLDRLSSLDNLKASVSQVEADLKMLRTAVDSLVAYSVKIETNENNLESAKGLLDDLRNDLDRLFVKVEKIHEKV

What was measured:
[1] = biological target: importin-β1 (KPNB1), endogenous in human iPSC-derived motor neurons (human (endogenous in iPSC-derived MNs)) (UniProt Q14974); test: co-IP; day 40 iPSC-derived MN lysates (control line), DSP cross-linking before lysis; endogenous KPNB1 immunoprecipitated with mouse anti-KPNB1 on Protein A Dynabeads, IgG control; Western blot
[2] = biological target: T1, hemagglutinin (HA)-tagged NEK1 (NIMA-related kinase 1) (human) (UniProt Q96PY6); test: co-IP; HA-NEK1 expressed in HEK293FT cells, immunoprecipitated (anti-HA), Western blot for endogenous proteins; DSP cross-linking before lysis
T1 sequence: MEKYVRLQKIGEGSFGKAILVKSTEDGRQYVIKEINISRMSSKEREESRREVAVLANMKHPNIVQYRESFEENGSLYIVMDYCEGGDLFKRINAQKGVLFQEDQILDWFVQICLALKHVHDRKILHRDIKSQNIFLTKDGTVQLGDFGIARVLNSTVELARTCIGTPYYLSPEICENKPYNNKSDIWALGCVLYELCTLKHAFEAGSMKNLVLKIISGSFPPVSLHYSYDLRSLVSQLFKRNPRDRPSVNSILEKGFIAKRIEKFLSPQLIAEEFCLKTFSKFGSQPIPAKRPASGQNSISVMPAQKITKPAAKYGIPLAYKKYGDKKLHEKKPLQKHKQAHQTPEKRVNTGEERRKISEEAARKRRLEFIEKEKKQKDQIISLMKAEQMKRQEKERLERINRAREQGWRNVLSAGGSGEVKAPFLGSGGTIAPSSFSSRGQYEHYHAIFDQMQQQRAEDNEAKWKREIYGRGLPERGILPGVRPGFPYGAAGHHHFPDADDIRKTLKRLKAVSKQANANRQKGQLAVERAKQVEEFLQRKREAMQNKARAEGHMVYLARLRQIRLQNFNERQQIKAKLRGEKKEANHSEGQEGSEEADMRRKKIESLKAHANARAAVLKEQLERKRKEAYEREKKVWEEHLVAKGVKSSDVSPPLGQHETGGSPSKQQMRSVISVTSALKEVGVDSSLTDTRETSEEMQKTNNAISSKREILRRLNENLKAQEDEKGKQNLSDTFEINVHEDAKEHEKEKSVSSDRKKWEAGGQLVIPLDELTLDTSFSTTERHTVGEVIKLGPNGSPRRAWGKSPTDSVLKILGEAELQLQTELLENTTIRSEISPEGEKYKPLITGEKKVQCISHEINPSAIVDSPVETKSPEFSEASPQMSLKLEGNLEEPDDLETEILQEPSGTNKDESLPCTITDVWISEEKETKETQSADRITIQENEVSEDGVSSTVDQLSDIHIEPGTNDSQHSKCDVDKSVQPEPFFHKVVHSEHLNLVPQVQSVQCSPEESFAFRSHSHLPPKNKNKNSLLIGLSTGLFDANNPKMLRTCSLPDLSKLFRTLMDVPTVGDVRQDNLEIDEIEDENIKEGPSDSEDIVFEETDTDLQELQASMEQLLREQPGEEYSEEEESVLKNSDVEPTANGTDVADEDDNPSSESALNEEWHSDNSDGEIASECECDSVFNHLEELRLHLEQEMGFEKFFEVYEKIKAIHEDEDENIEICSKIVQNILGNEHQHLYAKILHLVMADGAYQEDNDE

Row | Substance | binding [1] | binding [2]
1 | EB3 (from UniProt Q9UPY8 1-281) | no binding | –
2 | CLIMP63, endogenous in HEK293FT cells (from UniProt Q07065 1-602) | – | no binding
3 | CLIMP63, endogenous in human iPSC-derived motor neurons (from UniProt Q07065 1-602) | no binding | –
